In patent US20230065153A1 (HIROSHIMA UNIVERSITY, published 2023) one finds binding data, which are given here for one molecule.

No constants are given. Whether binding was seen depends on the method and setting. Some results given as binding are weak or reduced against the parent protein; the word gives no strength.

The target in experiment [1] is T1, human integrin α11 (human) (UniProt Q9UKX5).
T1 sequence (looked up): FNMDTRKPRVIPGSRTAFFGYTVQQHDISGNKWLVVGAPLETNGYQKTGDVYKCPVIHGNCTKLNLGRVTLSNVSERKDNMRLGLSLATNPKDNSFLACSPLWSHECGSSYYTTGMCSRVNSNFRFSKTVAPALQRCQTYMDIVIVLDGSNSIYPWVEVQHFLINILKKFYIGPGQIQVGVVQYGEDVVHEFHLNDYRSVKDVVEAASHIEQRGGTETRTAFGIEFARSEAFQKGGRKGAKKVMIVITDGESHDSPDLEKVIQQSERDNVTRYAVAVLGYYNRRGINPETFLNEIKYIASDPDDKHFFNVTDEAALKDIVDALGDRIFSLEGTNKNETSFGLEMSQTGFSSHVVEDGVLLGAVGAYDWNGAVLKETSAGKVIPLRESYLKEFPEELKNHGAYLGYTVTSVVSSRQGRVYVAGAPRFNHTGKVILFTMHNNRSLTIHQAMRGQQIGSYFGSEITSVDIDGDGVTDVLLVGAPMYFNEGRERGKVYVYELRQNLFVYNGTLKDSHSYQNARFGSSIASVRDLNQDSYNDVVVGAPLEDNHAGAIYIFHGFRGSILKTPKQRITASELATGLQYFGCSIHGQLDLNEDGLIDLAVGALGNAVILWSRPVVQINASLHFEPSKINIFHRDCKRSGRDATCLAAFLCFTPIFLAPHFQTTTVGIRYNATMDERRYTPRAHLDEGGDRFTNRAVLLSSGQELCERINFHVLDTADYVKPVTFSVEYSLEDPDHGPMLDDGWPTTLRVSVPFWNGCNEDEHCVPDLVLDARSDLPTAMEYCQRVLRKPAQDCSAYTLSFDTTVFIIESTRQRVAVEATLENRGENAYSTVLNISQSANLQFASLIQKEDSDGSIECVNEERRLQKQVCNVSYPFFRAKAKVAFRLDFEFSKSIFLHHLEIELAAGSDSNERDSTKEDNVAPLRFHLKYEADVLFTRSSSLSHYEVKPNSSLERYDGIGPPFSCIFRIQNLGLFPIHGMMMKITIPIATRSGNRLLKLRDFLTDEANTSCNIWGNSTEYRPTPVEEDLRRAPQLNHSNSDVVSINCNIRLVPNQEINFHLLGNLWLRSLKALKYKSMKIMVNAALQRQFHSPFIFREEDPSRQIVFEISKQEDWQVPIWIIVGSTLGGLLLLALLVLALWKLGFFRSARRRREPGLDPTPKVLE
As to the kind of experiment: FACS, IgG 5 µg/ml on human integrin α11 introduced CHO cells.

For another experiment, the target named is rat integrin α11 (rat). The experiment can be described thus: FACS on rat integrin α11 introduced CHO cells and on cultured rat hepatic stellate cells.

B1: wild-type #33 IgG (anti-integrin α11 monoclonal antibody, chicken-mouse chimeric IgG1) (antibody, V domains shown)
VH: AVTLDESGGGLQTPGGALSLVCKGSGFTFSSYGMQWVRQAPGRGLEWVAGIDDDGSFTLYGAAVDGRATISRDNGQTTVRLQLSDLRAEDTATYFCAKGGYGYCWYGDAACIDAWGHGTEVIVSS
VL: AVTQPSSVSANPGETVKITCSGGSDSWYGWYQQKSPGSAPVTVIYSNNQRPSNIPSRFSGSTSGSTSTLTITGVQADDEAVYFCGSRDSSYDGIFGAGTTLTVLK
notes: Chicken VH linked to a mouse IgG1 constant region and chicken VL linked to a mouse Igκ region; His-tagged at the C-terminal; also called the antibody
As for B1, the binding entry (in experiment [1]; in the experiment with rat integrin α11 (rat)) was “binds” each time.
